Patent US20160000930A1 (University of Texas, published 2016)
These are yes or no findings as the source states them, for the method shown. Binding calls can cover weak binding; strength is not graded here. Where a sequence is shown, tags or fusion partners need not be part of it.

Tests used:
[1] = biological target: recombinant bacterially-purified mouse ΔDCN (His6-tagged, amino acids 45-354 of mouse DCN) (mouse); experiment: ELISA, OD450 against FLAG-tagged protein concentration (FIG. 6D)
[2] = biological target: recombinant bacterially-purified mouse ΔDCN (His6-tagged, amino acids 45-354 of mouse DCN) (mouse); experiment: ELISA, ΔDCN coated, FLAG-resistin detected with anti-FLAG (FIG. 6D)

B1: FLAG-tagged mouse resistin produced in HEK293 cells (Enzo Life Sciences) (ligand, UniProt Q99P87 21-114, looked up)
chain: SSMPLCPIDEAIDKKIKQDFNSLFPNAIKNIGLNCWTVSSRGKLASCPEGTAVLSCSCGSACGSWDIREEKVCHCQCARIDWTAARCCKLQVAS
notes: Bought protein; also called FLAG-resistin; ADSF; not shown: FLAG tag
[1]
  binding: binds
[2]
  binding: binds
